{"sequences": {"note": "Chains of the proteins cited; added tags and fusions are not shown. Lines headed by an entry give the natural chain unless they say otherwise; changes in a name come on top.", "UniProt P01106": "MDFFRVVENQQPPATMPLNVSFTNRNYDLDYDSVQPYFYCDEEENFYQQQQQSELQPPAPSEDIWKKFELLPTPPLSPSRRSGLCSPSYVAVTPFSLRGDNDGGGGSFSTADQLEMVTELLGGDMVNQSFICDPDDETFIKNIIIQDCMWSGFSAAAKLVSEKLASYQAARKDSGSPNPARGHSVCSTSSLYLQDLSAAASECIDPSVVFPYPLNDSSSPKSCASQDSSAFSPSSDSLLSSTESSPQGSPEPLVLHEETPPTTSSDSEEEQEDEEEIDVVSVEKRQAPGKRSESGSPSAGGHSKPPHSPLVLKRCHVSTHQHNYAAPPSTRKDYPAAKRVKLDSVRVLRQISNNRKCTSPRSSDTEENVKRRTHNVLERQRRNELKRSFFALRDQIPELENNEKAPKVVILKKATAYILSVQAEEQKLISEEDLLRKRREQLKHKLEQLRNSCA", "UniProt Q6ZN18": "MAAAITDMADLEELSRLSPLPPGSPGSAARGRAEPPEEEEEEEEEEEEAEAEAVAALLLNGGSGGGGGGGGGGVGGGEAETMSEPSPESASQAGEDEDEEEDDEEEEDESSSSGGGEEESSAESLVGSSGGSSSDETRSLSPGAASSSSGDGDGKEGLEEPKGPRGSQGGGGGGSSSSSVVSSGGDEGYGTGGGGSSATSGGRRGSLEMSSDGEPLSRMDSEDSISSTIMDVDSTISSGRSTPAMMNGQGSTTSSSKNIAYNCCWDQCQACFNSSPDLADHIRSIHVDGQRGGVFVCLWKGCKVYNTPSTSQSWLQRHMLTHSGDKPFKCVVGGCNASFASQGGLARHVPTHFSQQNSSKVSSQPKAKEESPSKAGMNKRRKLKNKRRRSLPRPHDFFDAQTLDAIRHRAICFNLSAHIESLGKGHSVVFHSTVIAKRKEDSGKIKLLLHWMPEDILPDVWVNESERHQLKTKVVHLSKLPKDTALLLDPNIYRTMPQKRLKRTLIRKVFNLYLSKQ"}, "source": "paper PMC4912626", "target": "YFP-MYCΔMBII (UniProt P01106)", "test": "FRET or BRET; acceptor photobleaching FRET (apFRET) in fixed NIH3T3 cells co-expressing CFP- and YFP-tagged proteins, MAX co-expressed (MYC:MAX 4:1)", "note": "No constants are given. Whether binding was seen depends on the method and setting. Binding seen in cells or lysates may run through a third protein. Binding calls can cover weak binding; strength is not graded here."}
{"substance": "AEBP2-CFP (from UniProt Q6ZN18 1-517)", "values": [{"measurement": "binding", "result": "binds"}]}
